In this assay the test system is BDF1 mice, P388 leukemia ip, median survival T/C. The assay can be described thus: NCI In Vivo Anticancer Drug Screen. Data for tumor model P388 Leukemia (intraperitoneal) in B6D2F1 (BDF1) mice. The following applies: T/C endpoint: median survival time, higher T/C = longer survival. The method in brief:
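Steps: implant the tumour, treat one group with compound and another with vehicle, record survival, then divide treated by control.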

Setting [1] is: dose: 50.0 mg/kg/injection, schedule: Q01DX009 (ip), vehicle: Klucel (hydroxypropylcellulose) (HPC).
[2] abbreviates: dose: 400.0 mg/kg/injection, schedule: Q04DX003 (ip), vehicle: Klucel (hydroxypropylcellulose) (HPC).
The mark [3] stands for this setting: dose: 80.0 mg/kg/injection, schedule: Q04DX003 (ip), vehicle: Klucel (hydroxypropylcellulose) (HPC).

The list does not hold the whole screen: it gathers tests that were run many times, whatever their T/C, doses with no T/C, and many T/C values between a quarter and a half above the control. Further doses and runs are listed elsewhere. T/C: endpoint of the treated group in % of that of the vehicle group. Some entries give survivors of the animals treated and no T/C: the source holds a T/C of zero for them, seemingly a mark for toxic or unscored doses. Some survivor counts are full or nearly so, which does not show that the dose was tolerated: the source hardly ever lists a survival T/C far under the control, and the zero likely stands for such cases as well. Counts of survivors are from the toxicity check (mostly the fifth day) where no day follows; animals may have died later. Schedule codes are those of the source, read here as Q, the interval in days (D) or hours (H), X, the number of doses. For survival time, the PubChem record calls one and a half times the control and up active, and a quarter to a half above the control has no call in these data; cut-offs in other NCI protocols can differ.

Take `CC(=O)OCC(=O)[C@@]12OC(C)(C)O[C@@H]1C[C@H]1[C@@H]3CC(C=O)=C4C=C(OCCCl)CC[C@]4(C)[C@@]3(F)[C@@H](O)C[C@@]12C`: the survivor count (dose: 6.25 mg/kg/injection, schedule: Q01DX009 (ip), vehicle: Klucel (hydroxypropylcellulose) (HPC)) was 6 of 6; the survivor count (dose: 12.5 mg/kg/injection, schedule: Q01DX009 (ip), vehicle: Klucel (hydroxypropylcellulose) (HPC)) is listed as 6 of 6; the survivor count (dose: 25.0 mg/kg/injection, schedule: Q01DX009 (ip), vehicle: Klucel (hydroxypropylcellulose) (HPC)) is listed as 6 of 6; the survivor count under setting [1] was 5 of 6; the survivor count (dose: 100.0 mg/kg/injection, schedule: Q01DX009 (ip), vehicle: Klucel (hydroxypropylcellulose) (HPC)) is given as 6 of 6. The T/C runs as follows: (dose: 21.0 mg/kg/injection, schedule: Q04DX003 (ip), vehicle: Klucel (hydroxypropylcellulose) (HPC)) 125 % of control; (dose: 160.0 mg/kg/injection, schedule: Q04DX003 (ip), vehicle: Klucel (hydroxypropylcellulose) (HPC)) 130 % of control; (dose: 240.0 mg/kg/injection, schedule: Q04DX003 (ip), vehicle: Klucel (hydroxypropylcellulose) (HPC)) 135 % of control.

Turning to `O=C(Nc1ccc(C2=NCCN2)cc1)c1ccc(C(=O)Nc2ccc(C3=NCCN3)cc2)c([N+](=O)[O-])c1`, where the note is “dose: 18.0 mg/kg/injection, schedule: Q01DX010 (ip), vehicle: saline”, the survivor count is 5 of 6.

On to `CC(C)COC(=O)c1ccccc1O`, for which the survivor count under setting [2] is 5 of 6.

With `CC(CN1CC(=O)NC(=O)C1)N1CC(=O)NC(=O)C1.[Cl-].[Pt+4]` (configuration not stated), the T/C was 129 % of control (dose: 50.0 mg/kg/injection, schedule: Q01DX009 (ip), vehicle: saline); 148 % of control (dose: 100.0 mg/kg/injection, schedule: Q01DX009 (ip), vehicle: saline); 141 % of control (dose: 200.0 mg/kg/injection, schedule: Q01DX009 (ip), vehicle: saline).

`CCN1C(=O)CC(=O)N(CC)C1=S`: the survivor count under setting [2] was 3 of 3.

As to `CCN(C(=O)C(F)(F)F)C(C)(C)C(SSSC(c1ccc(Cl)cc1)C(C)(C)N(CC)C(=O)C(F)(F)F)c1ccc(Cl)cc1` (configuration not stated), under setting [1], the T/C is 130 % of control. In addition, the survivor count is, setting by setting: (dose: 200.0 mg/kg/injection, schedule: Q01DX009 (ip), vehicle: Klucel (hydroxypropylcellulose) (HPC)) 1 of 6; under setting [2], 1 of 6.

For `Cc1cc(NCCN(C(C)C)C(C)C)nc(/N=C(\N)Nc2ccc(Cl)c(C(F)(F)F)c2)n1`, the T/C is 125 % of control (dose: 8.8 mg/kg/injection, schedule: Q04DX003 (ip), vehicle: Klucel (hydroxypropylcellulose) (HPC)); 125 % of control (dose: 13.0 mg/kg/injection, schedule: Q04DX003 (ip), vehicle: Klucel (hydroxypropylcellulose) (HPC)); 127 % of control (dose: 20.0 mg/kg/injection, schedule: Q04DX003 (ip), vehicle: Klucel (hydroxypropylcellulose) (HPC)); 131 % of control (dose: 40.0 mg/kg/injection, schedule: Q04DX003 (ip), vehicle: Klucel (hydroxypropylcellulose) (HPC)); 127 % of control under setting [3]. For the same molecule, the survivor count by setting is: (dose: 40.0 mg/kg/injection, schedule: Q01DX009 (ip), vehicle: Klucel (hydroxypropylcellulose) (HPC)) 0 of 6; (dose: 60.0 mg/kg/injection, schedule: Q01DX009 (ip), vehicle: Klucel (hydroxypropylcellulose) (HPC)) 0 of 6; (dose: 60.0 mg/kg/injection, schedule: Q04DX003 (ip), vehicle: Klucel (hydroxypropylcellulose) (HPC)) 6 of 6; under setting [3], 6 of 6; (dose: 120.0 mg/kg/injection, schedule: Q04DX003 (ip), vehicle: Klucel (hydroxypropylcellulose) (HPC)) 6 of 6.

The values are drawn from PubChem BioAssay AID328 (DTP/NCI, 2004).
